Assay: Performance as redox mediator in glucose test strips with and without ascorbate
Conditions: for effect of ascorbate on measured currents: ascorbic acid 15 mg/dL (0.85 mM), 1.48 mM mediator; for slope of dose response: glucose 0-80 mg/dL, 1.48 mM redox mediator

CC[n+]1c2ccccc2nc2c(NC(=O)CCC(=O)O)cccc21 [1-(3-Carboxy-propionylamino)-5-ethyl-phenazinium]
effect of ascorbate on measured currents: only has a small effect on the currents | slope of dose response: 34 nA*dL/mg

CC[n+]1c2ccccc2nc2c(OCCCC(=O)O)cccc21 [1-(3-Carboxypropoxy)-5-ethylphenazinium, reference compound]
effect of ascorbate on measured currents: causes a current offset at low glucose concentrations | slope of dose response: 16.7 nA*dL/mg
